Primary screen of a compound library

The chains behind the UniProt entries cited, without tags or fusion partners. Residues count along the entry.
UniProt Q8IDJ8, 1-583: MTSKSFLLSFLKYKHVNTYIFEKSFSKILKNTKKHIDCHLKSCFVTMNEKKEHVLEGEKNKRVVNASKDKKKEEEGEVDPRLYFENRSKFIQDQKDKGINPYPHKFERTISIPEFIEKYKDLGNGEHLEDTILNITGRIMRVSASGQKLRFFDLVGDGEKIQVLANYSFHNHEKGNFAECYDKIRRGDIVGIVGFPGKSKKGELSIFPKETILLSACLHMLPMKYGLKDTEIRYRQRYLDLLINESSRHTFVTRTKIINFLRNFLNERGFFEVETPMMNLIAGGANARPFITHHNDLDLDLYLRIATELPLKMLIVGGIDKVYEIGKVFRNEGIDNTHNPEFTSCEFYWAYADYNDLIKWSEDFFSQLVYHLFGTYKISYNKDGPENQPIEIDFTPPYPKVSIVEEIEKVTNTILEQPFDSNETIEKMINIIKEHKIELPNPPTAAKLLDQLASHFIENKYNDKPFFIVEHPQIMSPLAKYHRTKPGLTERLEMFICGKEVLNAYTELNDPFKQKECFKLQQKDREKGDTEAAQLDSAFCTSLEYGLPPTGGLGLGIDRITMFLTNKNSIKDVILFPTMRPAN

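Enzyme assay of the cytosolic lysyl-tRNA synthetase in 384-well plates, read by luminescence. Target: Lysine-tRNA ligase, Plasmodium falciparum 3D7 (UniProt Q8IDJ8). Compounds at 30 µM. Direction is inferred from only a few compounds that gave an IC50; most scored high, so higher reads as stronger inhibition. About 69,000 compounds were tested under these conditions; 0.071% (about 49) showed 50% or more at least once.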

Results are given as percent effect. The controls that fix the scale are not given in the record; negative values are as filed. Compounds were drawn at random from those tested, without regard to their results.

{"structure": "CCn1nc(CC(C)C)cc1C(=O)N1CCCOC(CN2CCCC2)C1", "stereo": "stereo not shown", "Percent Effect": 4.881}
{"structure": "O=C(Nc1ccc(Br)cc1F)c1ccc(N2CCCCC2)nn1", "Percent Effect": 2.074}
{"structure": "CN(CC(F)(F)F)C(=O)COc1nc(Cc2ccc(F)cc2)no1", "Percent Effect": -1.782}
{"structure": "CCN(CC)C(=O)[C@@H]1C[C@@H](N)CN1c1nc(N2CCCC2)nc(C)c1C", "Percent Effect": -4.717}
{"structure": "c1cc(-c2ccc3c(c2)CCC32CCN(c3nncs3)CC2)ccn1", "Percent Effect": 3.199}
{"structure": "Cn1nnc2cc(C(=O)NS(=O)(=O)Cc3ccc(F)cc3)ccc21", "Percent Effect": 5.45}
{"structure": "CS(=O)(=O)c1ccc(CNC(=O)NCc2cc[nH]n2)cc1", "Percent Effect": 2.58}
{"structure": "COCCCN1CC2(CCN(C(=O)c3ncc(F)cc3F)CC2)CC1=O", "Percent Effect": 8.187}
{"structure": "O=C(c1ccc[nH]1)N1CCC2(CCCN2Cc2cccnc2)CC1", "Percent Effect": 0.2738}
{"structure": "Cc1ccc(NCc2cn3c(n2)CN(Cc2ccc(C)o2)CC3)nn1", "Percent Effect": 6.183}
{"structure": "CCCOCCN1CCC2(CC1)CC(=O)N(Cc1cc(F)cc(F)c1)C2", "Percent Effect": 4.338}
{"structure": "Cc1cnn(CC2CCCCN2CCC(=O)Nc2cc(C)on2)c1", "stereo": "stereo not shown", "Percent Effect": -1.089}
{"structure": "CC(C)NC(=O)N1CCN(CCn2cccn2)c2ncccc2C1", "Percent Effect": 2.86}
{"structure": "O=C(Nc1cnn(CCN2CCOCC2)c1)c1cc(F)ccc1F", "Percent Effect": 2.971}
{"structure": "O=c1cc(CNCc2ccc3c(c2)OCO3)nc2ccccn12", "Percent Effect": 2.997}
{"structure": "CC(C(=O)NCc1ccnc(N2CCN(C)CC2)c1)S(C)(=O)=O", "stereo": "stereo not shown", "Percent Effect": -2.923}
{"structure": "COCC(O)CN1CCC(=O)N(Cc2ccco2)Cc2ccccc21", "stereo": "stereo not shown", "Percent Effect": 4.721}
{"structure": "COc1ccc(Cl)cc1CNC(=O)CN1CCC2(CCOC2)C1", "stereo": "stereo not shown", "Percent Effect": 0.3888}
{"structure": "CC1CCN(CC(O)CN2CCn3c(nnc3C3CC3)C2)CC1", "stereo": "stereo not shown", "Percent Effect": 0.6232}
{"structure": "CCCc1nnc(N2CCN(c3cccc(OC)c3)C(=O)C2)o1", "Percent Effect": -0.7924}
{"structure": "Cn1ncc2c1CN(Cc1ccc(F)cc1)CC2COCC1CC1", "stereo": "stereo not shown", "Percent Effect": -1.853}
{"structure": "CC(C)CN1CCC2(C=C(C(=O)N(C)C)c3ccccc32)CC1", "Percent Effect": 5.455}
{"structure": "Cc1ccc(CN2CC[C@H]3[C@H]2CC(=O)N3c2ccsc2)o1", "Percent Effect": -3.462}
{"structure": "Cc1nn(C)c2ncc(CN3CCN(c4ncccn4)CC3)cc12", "Percent Effect": 0.9476}
{"structure": "O=C(CCc1nc2cc(Br)cnc2[nH]1)NCCN1CCOCC1", "Percent Effect": 3.637}
{"structure": "OC(CN(Cc1ccccc1)Cc1cscn1)c1cccs1", "stereo": "stereo not shown", "Percent Effect": 3.233}
{"structure": "CCOc1ccc(NC(=O)N2CCOC(C(N)=O)C2)cc1C", "stereo": "stereo not shown", "Percent Effect": 0.195}
{"structure": "Cc1cc(C2CCCN2C(=O)COc2ccc(CC#N)cc2)on1", "stereo": "stereo not shown", "Percent Effect": 1.766}
{"structure": "Cn1cc(CN2C[C@@H]3OCCN(CC4CCCC4)[C@@H]3C2)cn1", "Percent Effect": 7.059}
{"structure": "COCCN(CCN(C)C)C(=O)NC1CC1", "Percent Effect": 1.158}
{"structure": "CC(O)CCN(C)S(=O)(=O)Cc1ccc(Br)cc1", "stereo": "stereo not shown", "Percent Effect": -0.9984}
{"structure": "CC1=CC[C@@H]2CN(C(=O)c3ccc(-c4nnn(C)n4)cc3)C[C@@H]2C1", "Percent Effect": -1.125}
{"structure": "CC1(C(=O)NCc2ccsc2)CCOCC1", "Percent Effect": -1.214}

Repeated from the top, 3 entries:

| structure | Percent Effect |
|---|---|
| `CCn1nc(CC(C)C)cc1C(=O)N1CCCOC(CN2CCCC2)C1` (stereo not shown) | 4.881% |
| `O=C(Nc1ccc(Br)cc1F)c1ccc(N2CCCCC2)nn1` | 2.074% |
| `CN(CC(F)(F)F)C(=O)COc1nc(Cc2ccc(F)cc2)no1` | -1.782% |

From ChEMBL document CHEMBL3988442, “University of Dundee, Small-Polar-MMV Screening Library” (2021).